Results on two molecules are retold here after patent US20260152565A1 (Dana-Farber, published 2026).

By UniProt entry, the sequences of proteins in these tests, tags left out. Where a name states a change or a piece, a line headed by the entry shows the natural chain unless it says otherwise.
UniProt Q02223: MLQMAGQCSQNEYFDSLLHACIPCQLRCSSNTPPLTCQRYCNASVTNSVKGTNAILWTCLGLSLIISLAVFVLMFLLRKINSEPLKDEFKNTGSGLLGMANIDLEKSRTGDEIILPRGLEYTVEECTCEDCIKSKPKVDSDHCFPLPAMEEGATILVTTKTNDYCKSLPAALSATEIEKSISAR

In assay [1] the target is cynomolgus monkey BCMA expressed on HEK 293T cells (cynomolgus monkey). The assay can be described thus: binding to HEK 293T-cyno BCMA cells.
Assay [2] shares this target. The experiment in a line: cell binding, MFI against antibody concentration, panel title Bind to HEK293T - cyno BCMA.
Assay [3] has as its target BCMA on cells, species not stated (Homo sapiens (Human)) (UniProt Q02223). The assay can be described thus: binding to NCI-H9292 cells.
Assay [4] shares this target. The assay can be described thus: cell binding, MFI against antibody concentration, panel title Bind to NCI-H929 cell.
Assay [5] has the same target. The assay can be described thus: competition: blocking of BAFF binding to BCMA, OD450 against antibody concentration in nM, panel title Blocking of BAFF to BCMA.

No constants are given. Whether binding was seen depends on the method and setting. Some results given as binding are weak or reduced against the parent protein; the word gives no strength.

B1: PR000943 (antibody, V domains shown)
VH: EVQLVETGGGLIQPGGSLRLSCAASGFPVSSNYMSWVRQAPGKGLEWVSVIFSGGRTYYADSVKGRFTISRDNSKNTLYLQMNSLRAEDTAVYYCARRNWIDGRDAFDIWGQGTMVTVSS
notes: also called HCAb antibody PR000943; not shown: constant part (CH2 and CH3 regions of the Harbour HCAb format)
As for B1, the binding entry in assay [1] and in assay [2] was “binds” each time.

B2: PR000940 (antibody, V domains shown)
VH: EVQLLESGGGLVQPGGSLRLSCAASGFTFSSYAMIWVRQAPGKGLEWVSGISESGGSTYYADSVKGRFTISRDNSKNTLYLQMNSLRAEDTAVYFCVKDLDDILTGYYKDYWGQGTLVTVSS
notes: Heavy chain-only antibody from Harbour HCAb mice: dimer of two heavy chains, each with VH, CH2 and CH3; also called HCAb antibody PR000940; not shown: constant part (CH2 and CH3 regions of the Harbour HCAb format)
As for B2, the binding entry in assay [3], in assay [4] and in assay [5] was “binds” each time.
